No constants are given. Whether binding was seen depends on the method and setting. In cells and extracts the contact can be indirect. Some binding calls cover weakened binding; strength is not graded here. Tags and fused reporters may be left off the sequences shown.

Amino acid sequences for entries named in this document (tags omitted).
UniProt O95292: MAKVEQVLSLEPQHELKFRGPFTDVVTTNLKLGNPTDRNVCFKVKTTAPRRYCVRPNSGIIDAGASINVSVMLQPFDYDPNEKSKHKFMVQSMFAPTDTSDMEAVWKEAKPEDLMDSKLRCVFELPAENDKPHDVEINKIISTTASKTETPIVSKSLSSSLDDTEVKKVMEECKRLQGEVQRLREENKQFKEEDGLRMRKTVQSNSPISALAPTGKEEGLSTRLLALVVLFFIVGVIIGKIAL

For 1 substance, binding results are on record in article PMC11994663.

The assay has as its target T1, PTPIP51-Flag (UniProt Q96TC7).
T1 sequence: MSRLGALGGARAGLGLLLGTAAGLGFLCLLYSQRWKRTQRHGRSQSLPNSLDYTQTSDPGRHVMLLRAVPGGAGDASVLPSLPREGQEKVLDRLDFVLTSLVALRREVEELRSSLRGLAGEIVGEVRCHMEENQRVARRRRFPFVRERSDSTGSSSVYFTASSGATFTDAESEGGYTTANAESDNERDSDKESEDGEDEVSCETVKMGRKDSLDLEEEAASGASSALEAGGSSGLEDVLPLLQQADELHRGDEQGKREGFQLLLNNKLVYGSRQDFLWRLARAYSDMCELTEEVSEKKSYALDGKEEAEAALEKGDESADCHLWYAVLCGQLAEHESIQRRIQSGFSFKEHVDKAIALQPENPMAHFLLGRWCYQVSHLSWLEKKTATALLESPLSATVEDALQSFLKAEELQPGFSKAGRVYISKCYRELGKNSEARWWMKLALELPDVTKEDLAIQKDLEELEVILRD
Briefly: co-IP; lysate (1 mg) of SH-SY5Y cells co-transfected with PTPIP51-Flag or VAPB-Flag and Vector, SNCA or SNCA-S129A for 48 h, IP with anti-Flag antibody overnight at 4°C, magnetic beads, IP buffer 150 mM NaCl, 10 mM Tris-HCl pH 7.5, 2 mM EDTA, 0.5% Triton X-100; western blot. Background: Immunoblotting shows a protein as a band on a membrane.

Consider “vesicle-associated membrane protein-associated protein B (VAPB), endogenous in SH-SY5Y cells (from UniProt O95292 1-243)”, for which the binding entry was “binds”.
